From ChEMBL document CHEMBL3988442, “University of Dundee, Small-Polar-MMV Screening Library” (2021).

Each number is a percent effect as filed. The controls that fix the scale are not given in the record; negative values are as filed. The compounds are a random part of those screened.

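Whole-cell assay for inhibitors of Mycobacterium tuberculosis growth, labelled Cornell in the record; the read-out is not stated. The concentration is filed as 10 mM, unlikely as a test dose, so the dose is not known. Higher means stronger inhibition (inferred from two other growth screens of the library). Size under these conditions: about 53,000 compounds, about 900 of them at 50% or above in at least one test.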

{"compound": "COC(=O)CCNC(=O)c1nnn(-c2ccccc2)c1C(F)(F)F", "effect": 17.36}
{"compound": "O=C(NN1CCCc2ccccc21)c1c[nH]c(=O)[nH]1", "effect": 7.126}
{"compound": "COCC1CN(Cc2ccoc2)Cc2cn(CC3CCOCC3)nc21", "stereo": "centres unmarked", "effect": -11.6}
{"compound": "O=C(Cn1cc(C(=O)O)ccc1=O)NCc1ccc(F)cc1Cl", "effect": -36.76}
{"compound": "Cc1cc(N2CCC(N(C)C(=O)c3cccs3)CC2)nc(C)n1", "effect": 3.462}
{"compound": "COCCS(=O)(=O)NC(C)c1ccccc1Br", "stereo": "centres unmarked", "effect": -59.33}
{"compound": "CN(CCc1ncnn1-c1ccccc1Cl)C1CCS(=O)(=O)C1", "stereo": "centres unmarked", "effect": -16.6}
{"compound": "Cc1cc(N2CCOC(c3ccncn3)C2)ncn1", "stereo": "centres unmarked", "effect": -8.937}
{"compound": "COc1c(C2CCCN2C(=O)Cc2c(C)noc2C)c(C)nn1C", "stereo": "centres unmarked", "effect": 22.3}
{"compound": "Cc1cnc(N)c(C(=O)C2CCN(C(=O)C3CCC3)CC2)c1", "effect": -22.9}
{"compound": "CC(NC(=O)NCCCOC1CCCCC1)c1nncn1C", "stereo": "centres unmarked", "effect": 19.75}
{"compound": "CCc1cc(=O)[nH]c(NC2CCN(S(=O)(=O)c3ccccc3)CC2)n1", "effect": 69.51}
{"compound": "O=C(c1ncoc1-c1ccco1)N(Cc1ccco1)CC1CCCO1", "stereo": "centres unmarked", "effect": 21.72}
{"compound": "O=S(=O)(C1CC1)N1CCc2ncnc(-c3ccsc3)c2CC1", "effect": 10.35}
{"compound": "COCC(=O)N1CCCCC1c1nc(N(C)C)ncc1-c1cc(C)no1", "stereo": "centres unmarked", "effect": -27.86}
{"compound": "O=C(NC1CCCNC1)c1cc(COc2cccc(C(F)(F)F)c2)[nH]n1", "stereo": "centres unmarked", "effect": -11.35}
{"compound": "Cc1noc(C(C)C)c1C(=O)NCC(c1ccccc1)N(C)C", "stereo": "centres unmarked", "effect": 34.08}
{"compound": "O=C(CN1C(=O)CCC1=O)N1CCC(S(=O)(=O)Cc2ccco2)CC1", "effect": 4.651}
{"compound": "Cn1cc(NC(=O)c2cccc(-n3cnnn3)c2)cn1", "effect": -39.47}
{"compound": "[H][C@]12CC[C@]([H])(CN(Cc3[nH]cnc3C)C1)N(C(=O)CCc1cnn(C)c1)C2", "effect": 0.3684}
{"compound": "Cn1cc(C2COC3(CCN(C(=O)c4cccn4C)CC3)C2)cn1", "stereo": "centres unmarked", "effect": -1.207}
{"compound": "O=C(NCCN1CCCCC1)c1scnc1Cl", "effect": 13.08}
{"compound": "CCn1cnnc1Cn1cccc(C(F)(F)F)c1=O", "effect": -27.15}
{"compound": "CN(C)C1CCCN(C(=O)c2cccc(-c3ncc[nH]3)c2)CC1", "stereo": "centres unmarked", "effect": -10.54}
{"compound": "Cc1ncsc1-c1nc(Cc2cccs2)nn1C1CCN(C)CC1", "effect": 16.53}
{"compound": "CN(C)c1ncccc1N(C)C(=O)Cn1cc(-c2ccccc2)nn1", "effect": 10.49}
{"compound": "CN(C)CCNC(=O)c1noc2c1CN(C(=O)N(C)C)CC2", "effect": 28.13}
{"compound": "c1ccc(-c2nc(CNCCn3cccn3)cs2)cc1", "effect": 46.8}
{"compound": "CNC(=O)c1sccc1S(=O)(=O)NC", "effect": -36.3}
{"compound": "Cc1cc(N(C)CCC(O)c2ccccc2)n2nccc2n1", "stereo": "centres unmarked", "effect": -28.51}
{"compound": "Cc1ccc2c(C(=O)N(C)C)cc(-c3cnn(CCO)c3)nc2c1C", "effect": -18.31}
{"compound": "Cn1nc(COc2cncnc2)c2c1CCN(Cc1ccco1)C2.O=C(O)C(F)(F)F", "effect": 2.771}
{"compound": "COc1cccc(N2Cc3nc(=O)n(Cc4cccc(F)c4)n3C2=O)c1", "effect": 2.319}
{"compound": "CC(C)c1nc(C2CCCN2C(=O)c2ccc3nncn3c2)no1", "stereo": "centres unmarked", "effect": -3.824}
{"compound": "COCCC(=O)N1CCOCC(Cc2ccc3c(ccn3C)c2)C1", "stereo": "centres unmarked", "effect": 35.86}
{"compound": "[H][C@]12CCCN(c3ncc(C)cn3)[C@@]1([H])CN(C(C)=O)C2", "effect": -52.91}
{"compound": "CC(=O)N1Cc2ccccc2OC2(CCN(C(=O)C3CC3)CC2)C1", "effect": -8.797}
{"compound": "COC(=O)c1ccc(S(=O)(=O)NC2CNC(=O)C2)cc1", "stereo": "centres unmarked", "effect": 28.84}
{"compound": "Cc1ncc(-c2ccnc(N3CCC[C@@H]3CO)n2)c(-c2cccnc2)n1", "effect": 14.33}
{"compound": "c1ccc(CCN2CCCC(c3ccnc4nccn34)C2)cc1", "stereo": "centres unmarked", "effect": 18.36}
{"compound": "Cl.c1cnc2c(c1)cc(C1CCOCC1)n2CCN1CCOCC1", "effect": 11.65}
{"compound": "CC(C)n1cnnc1CN(C)CC1CCOC1", "stereo": "centres unmarked", "effect": 9.088}
{"compound": "O=C(O)C(F)(F)F.[H][C@@]12COC[C@]1(CNC(=O)c1cccn1C)CN(Cc1nccs1)C2", "effect": -7.104}
{"compound": "O=C(c1cnccn1)N1CCC(Cc2cnc3[nH]ccc3c2)CC1", "effect": 18.65}
{"compound": "Cc1ccsc1C(=O)Nc1cc(Br)c(=O)n(C)c1", "effect": 34.16}
{"compound": "O=C(NCCc1cc(F)ccc1F)NCC(O)C1CC1", "stereo": "centres unmarked", "effect": 7.659}
{"compound": "COc1c(CNCCc2c[nH]c3cc(F)ccc23)c(C)nn1C", "effect": -33.21}
{"compound": "Cc1c(Cn2c(=O)cnc3ccccc32)cnn1C", "effect": -6.006}
{"compound": "[H][C@]12C[C@H](CNC(=O)c3cccn3C)O[C@@]1([H])CN(C(=O)c1ccco1)C2", "effect": -23.78}
{"compound": "COc1c(C2CCCN2Cc2cn3ccsc3n2)c(C)nn1C", "stereo": "centres unmarked", "effect": -3.698}
{"compound": "COCCN1CCN(CC(=O)N(C)Cc2cccc(F)c2)CC1C", "stereo": "centres unmarked", "effect": -0.4591}

5 of the entries, repeated:

COCCS(=O)(=O)NC(C)c1ccccc1Br (centres unmarked) read -59.33%.
CN(C)CCNC(=O)c1noc2c1CN(C(=O)N(C)C)CC2 read 28.13%.
CN(C)C1CCCN(C(=O)c2cccc(-c3ncc[nH]3)c2)CC1 (centres unmarked) read -10.54%.
Cc1cc(N2CCC(N(C)C(=O)c3cccs3)CC2)nc(C)n1 read 3.462%.
Cc1c(Cn2c(=O)cnc3ccccc32)cnn1C read -6.006%.